Source: publication PMC12040169 (PLOS Biology, 2025)
This is one part of the list.

What follows are compounds tested on T1, CTL2-GFP (C. trachomatis L2/434/Bu, GFP-expressing). Details: bulk GFP, single well; 28.5 h, 10 µM; inhibitor.
T1 construct: L2/434/Bu, GFP-expressing
Design: species or system HeLa; Intracellular C. trachomatis growth in HeLa cells, bulk GFP fluorescence relative to DMSO
In the case of COc1ccc(N2C(=O)CC(NNC(=O)CNC(C)=O)C2=O)cc1 (stereo not drawn) [CBK267228], the “% of control remaining” value was 138.665%. In the case of O=C(NCCC(=O)N1CCCCC1)c1cccc(OCc2cscn2)c1 [CBK306384], the “% of control remaining” value was 92.0985%. O=C(c1ccccc1)N1CCCC(c2nccnc2-c2cccc(C(F)(F)F)c2)C1 (stereo not drawn) [CBK286218] was tested, and the “% of control remaining” value was 88.0819%. In the case of Cc1nc(Nc2cccc(C3CCCN3C(=O)COc3ccc(F)cc3)n2)sc1C (stereo not drawn) [CBK286019], the “% of control remaining” value was 113.53%. COc1cccc(C(=O)Nc2cc(C)c3c(=O)oc4ccccc4c3n2)c1OC [CBK287437] was tested, and the “% of control remaining” value was 114.571%. In the case of CC(=O)Nc1cccc(-c2cncc(-c3ccc(O)cc3)n2)c1 [CBK123795], the “% of control remaining” value was 107.383%. In the case of CCn1cncc1C(=O)NCC1(c2ccccc2F)CCOCC1 [CBK281555], the “% of control remaining” value was 99.6667%. In the case of c1csc(CCN2CCC3(CC2)OCCc2c3[nH]c3ccccc23)c1 [CBK040156], the “% of control remaining” value was 102.755%. With Cc1cccc(Oc2nc3c(C)cccn3c(=O)c2/C=C(\C#N)c2nc3ccccc3[nH]2)c1 [CBK266528] the “% of control remaining” value was 147.869%. COc1ccc(Nc2nc(N)nc(CSc3nncn3C)n2)cc1 [CBK266730] was tested, and the “% of control remaining” value was 158.409%. In the case of CN(C)S(=O)(=O)c1ccc(Cl)c(C(=O)Nc2ccc(C(=O)O)cc2)c1 [CBK265728], the “% of control remaining” value was 195.736%. With COc1ccc(/N=c2/cc(C)[nH]c3ncnn23)cc1 [CBK287893] the “% of control remaining” value was 114.939%. With c1ccc(Oc2ccc(Nc3cccc(-c4ccc5ccccc5c4)n3)cc2)cc1 [CBK037636] the “% of control remaining” value was 122.595%. For CN(CCN1CCCCC1)C(=O)c1c2c(nn1C)CCCC2 [CBK281905], the “% of control remaining” value was 106.723%. For COc1ccc(-c2noc([C@@H]3C[C@H](NS(=O)(=O)Cc4ccccc4)CN3C)n2)cc1 [CBK288863], the “% of control remaining” value was 117.165%. In the case of OCc1cc(Cl)c(Cl)c(CO)c1O [CBK269397], the “% of control remaining” value was 109.317%. In the case of COc1ccccc1-c1cnc(N)c(N[C@@H](CO)C(C)C)n1 [CBK063749], the “% of control remaining” value was 196.805%. For COc1ccc(CN2CCCN(C(=O)c3ccc(C#N)cc3)CC2)cc1 [CBK305273], the “% of control remaining” value was 106.305%. For CN(C)CCC(c1ccccc1)n1cncc1-c1cnn(C)c1 (stereo not drawn) [CBK281742], the “% of control remaining” value was 154.865%. Cc1ccc2nc(N3CCCC(O)C3)c(CN3CCC(F)CC3)cc2c1 (stereo not drawn) [CBK307016] was tested, and the “% of control remaining” value was 131.46%. For O=C(NCc1nnc(-c2cccs2)o1)c1ccccc1-c1ccccc1 [CBK286293], the “% of control remaining” value was 85.8831%. In the case of Cc1ccc(C(=O)NCCN2CCOCC2)c(NCCCn2ccnc2)n1 [CBK076371], the “% of control remaining” value was 144.356%. CCC(=O)N1CCC(NC(=O)c2cnc(-c3ccncc3)s2)C1 (stereo not drawn) [CBK305550] was tested, and the “% of control remaining” value was 97.126%. CCC(Oc1ccc(C)cc1)C(=O)Nc1ccccc1C(=O)N1CCOCC1 (stereo not drawn) [CBK270132] was tested, and the “% of control remaining” value was 159.119%. For O=C(O)C(Cc1ccccc1)n1cnnn1 (stereo not drawn) [CBK021162], the “% of control remaining” value was 90.0157%. In the case of O=C(O)C1(NCc2ccccc2Cl)CCCCC1 [CBK287269], the “% of control remaining” value was 164.172%. For O=C(Cn1cnc2c(c1=O)CCCC2)Nc1ccc(Cl)c(Cl)c1 [CBK304655], the “% of control remaining” value was 88.1348%. For N#Cc1ccc(NC(=O)CC2(CC(=O)O)CCCC2)cc1 [CBK286979], the “% of control remaining” value was 154.202%. With O=C(Nc1cccc(N2CCCC2)c1)c1cc(C2CC2)on1 [CBK283139] the “% of control remaining” value was 118.635%. In the case of COc1ccccc1N1CC(C(=O)Nc2ccc(C(=O)O)cc2)CC1=O (stereo not drawn) [CBK269606], the “% of control remaining” value was 142.475%. For O=C(O)CN1C(=O)C(=Cc2ccc(-c3ccc(Br)cc3)o2)SC1=S [CBK296075], the “% of control remaining” value was 155.135%. For O=C1CSC(c2cccnc2)N1CCc1ccccn1 (stereo not drawn) [CBK017292], the “% of control remaining” value was 95.9522%. COc1cc(OC)cc(-c2[nH][nH]c(=O)c2CCN)c1 [CBK288414] was tested, and the “% of control remaining” value was 102.74%. In the case of CC(C)(C)NC(=O)CNS(=O)(=O)c1ccccc1 [CBK265807], the “% of control remaining” value was 100%. With Cc1cc(OCC(O)CN2CCN(Cc3ccc4c(c3)OCO4)CC2)cc(C)c1Cl (stereo not drawn) [CBK074374] the “% of control remaining” value was 123.367%. With COc1ccc(S(=O)(=O)NCCSCc2cccc(C)c2)cc1Cl [CBK268477] the “% of control remaining” value was 98.4683%. With CCn1cc(CN2CCCN(C(=O)c3cc(C)on3)CC2)cn1 [CBK306145] the “% of control remaining” value was 130.012%. In the case of Cc1nn(C)c2ncc(S(=O)(=O)NCC(N)c3ccc(F)cc3F)cc12 (stereo not drawn) [CBK304303C], the “% of control remaining” value was 126.148%. With C=CCOc1ccccc1CNc1nc[nH]n1 [CBK267234] the “% of control remaining” value was 97.7988%. In the case of COc1cccc(C(=O)Nc2nn(Cc3ccc(C(F)(F)F)cc3)c3ccccc23)c1 [CBK048273], the “% of control remaining” value was 88.2334%. In the case of COc1cc(C=CC(=O)O)cc(S(=O)(=O)Nc2ccccc2C(=O)NCCc2ccccc2)c1OC [CBK297487], the “% of control remaining” value was 134.28%. Cc1nc(N)sc1-c1nnc(Nc2ccccc2)s1 [CBK267353] was tested, and the “% of control remaining” value was 140.291%. CC1CCN(Cc2ccc(-c3ccc(CNC(=O)c4ccc5c(c4)OC(F)(F)O5)s3)cc2)CC1 [CBK166113] was tested, and the “% of control remaining” value was 98.3917%. With CC1Cc2cc(CC(=O)N(C)CC(F)(F)F)ccc2O1 (stereo not drawn) [CBK283067] the “% of control remaining” value was 83.2864%. For COc1ccc(/C=C(\C)C(=O)Nc2ccc(N3CCNCC3)c3ccccc23)cc1OC [CBK038913T], the “% of control remaining” value was 120.774%. CCN(CC(O)COc1cc(C)c(Cl)c(C)c1)S(=O)(=O)O (stereo not drawn) [CBK026767N] was tested, and the “% of control remaining” value was 107.655%. In the case of O=C(c1ccccc1)c1cc[n+](CCC[n+]2ccc(C(=O)c3ccccc3)cc2)cc1 [CBK278270B], the “% of control remaining” value was 100.961%. Cc1cc(O)n2nc(CC(=O)NCCCn3c(C)cccc3=O)nc2n1 [CBK306532] was tested, and the “% of control remaining” value was 128.115%. CCN(CC)CCOC1CCc2ccccc2CC1 [CBK016730C] was tested, and the “% of control remaining” value was 163.208%. CC(C)N(C(=O)c1ccccc1-c1cnc2cccnn12)C(C)C [CBK306900] was tested, and the “% of control remaining” value was 129.54%. Cc1[nH]c2cc(C(=O)NCCn3nccc3C)ccc2c1C [CBK283313] was tested, and the “% of control remaining” value was 134.272%.
